Reference: PubChem BioAssay AID652272 (Drosophila RNAi Screening Center, 2013)
The deposit covers about 21,000 reagents; below is an unselected part of those that have a named target and a result. Of all reagents, 503 (2.4%) got an active call. 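Raw plate light values, not normalised; calls rest on replicate z-scores that were not deposited; hits include reporter decreases as well as increases.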 Entries without a mark were called inactive. Not given: the amount of reagent, the time to read-out.

Assay: 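Finding fly genes that regulate Hedgehog signal transduction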 (primary screen)
System: Drosophila clone 8 (Cl8) cells
Knock-down reagent: long dsRNA against Drosophila genes
Detection: 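Firefly light from a Hedgehog-responsive ptc promoter reporter and Renilla reference light, both read on a plate reader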
Direction: firefly Hh reporter signal: higher = more ptc reporter light; Renilla reference signal: higher = more Renilla control light
Rule for the call: 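Hit when the z-score averaged over two replicates is under -2 or over +3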
Calls: active = hit: reporter lowered or raised; inactive = not a hit

With knock-down of kat-60L1 [DRSC12184] the results were firefly Hh reporter signal, replicate 1 = 1.82e5; firefly Hh reporter signal, replicate 2 = 1.25e5; Renilla reference signal, replicate 1 = 7096; Renilla reference signal, replicate 2 = 5175.
After knock-down of Daao1 [DRSC06131], the record shows firefly Hh reporter signal, replicate 1 = 90389; firefly Hh reporter signal, replicate 2 = 46688; Renilla reference signal, replicate 1 = 2200; Renilla reference signal, replicate 2 = 4204.
With knock-down of pelo [DRSC03588], the record shows firefly Hh reporter signal, replicate 1 = 63948; firefly Hh reporter signal, replicate 2 = 47542; Renilla reference signal, replicate 1 = 2672; Renilla reference signal, replicate 2 = 2096.
CG11679 [DRSC19415] showed firefly Hh reporter signal, replicate 1 = 75104; firefly Hh reporter signal, replicate 2 = 51904; Renilla reference signal, replicate 1 = 1987; Renilla reference signal, replicate 2 = 1616.
After knock-down of CG31091 [DRSC15933] the results were firefly Hh reporter signal, replicate 1 = 4.64e5; firefly Hh reporter signal, replicate 2 = 95728; Renilla reference signal, replicate 1 = 22854; Renilla reference signal, replicate 2 = 2418.
CG43295 [DRSC09416] gave firefly Hh reporter signal, replicate 1 = 1.90e5; Renilla reference signal, replicate 1 = 4393.
For PH4alphaNE3 [DRSC16541], the values are firefly Hh reporter signal, replicate 1 = 1.32e5; firefly Hh reporter signal, replicate 2 = 1.12e5; Renilla reference signal, replicate 1 = 3313; Renilla reference signal, replicate 2 = 3015.
After knock-down of SecS [DRSC12222], the screen gave firefly Hh reporter signal, replicate 1 = 76695; firefly Hh reporter signal, replicate 2 = 1.29e5; Renilla reference signal, replicate 1 = 3283; Renilla reference signal, replicate 2 = 3313.
CG4074 [DRSC11752] showed firefly Hh reporter signal, replicate 1 = 95527; firefly Hh reporter signal, replicate 2 = 80310; Renilla reference signal, replicate 1 = 3078; Renilla reference signal, replicate 2 = 2473.
Knock-down of dnd [DRSC16064] resulted in: firefly Hh reporter signal, replicate 1 = 8.71e5; firefly Hh reporter signal, replicate 2 = 2.02e5; Renilla reference signal, replicate 1 = 45984; Renilla reference signal, replicate 2 = 13077.
CG14451 [DRSC11708] gave firefly Hh reporter signal, replicate 1 = 71322; firefly Hh reporter signal, replicate 2 = 96752; Renilla reference signal, replicate 1 = 2656; Renilla reference signal, replicate 2 = 2363.
Silencing of CG10555 [DRSC17748] gave: firefly Hh reporter signal, replicate 1 = 74388; firefly Hh reporter signal, replicate 2 = 2.73e5; Renilla reference signal, replicate 1 = 2640; Renilla reference signal, replicate 2 = 8640.
Depletion of lds [DRSC16988] came out at: firefly Hh reporter signal, replicate 1 = 91381; firefly Hh reporter signal, replicate 2 = 86732; Renilla reference signal, replicate 1 = 3384; Renilla reference signal, replicate 2 = 5035.
Knock-down of CG14011 [DRSC02343] came out at: firefly Hh reporter signal, replicate 1 = 1.04e5; firefly Hh reporter signal, replicate 2 = 54484; Renilla reference signal, replicate 1 = 1971; Renilla reference signal, replicate 2 = 5110.
Silencing of alphaKap4 [DRSC09823] resulted in: firefly Hh reporter signal, replicate 1 = 48000; firefly Hh reporter signal, replicate 2 = 42338; Renilla reference signal, replicate 1 = 2850; Renilla reference signal, replicate 2 = 3590.
After knock-down of CG12206 [DRSC17828], the record shows firefly Hh reporter signal, replicate 1 = 76857; firefly Hh reporter signal, replicate 2 = 2.71e5; Renilla reference signal, replicate 1 = 1736; Renilla reference signal, replicate 2 = 9793.
Knock-down of CG13071 [DRSC09954] gave: firefly Hh reporter signal, replicate 1 = 1.12e5; Renilla reference signal, replicate 1 = 4523; Renilla reference signal, replicate 2 = 3267.
Against kibra [DRSC14533], the entry reads firefly Hh reporter signal, replicate 1 = 83296; firefly Hh reporter signal, replicate 2 = 90400; Renilla reference signal, replicate 1 = 3074; Renilla reference signal, replicate 2 = 2691.
kibra [DRSC16257] scored firefly Hh reporter signal, replicate 1 = 43323; firefly Hh reporter signal, replicate 2 = 21778; Renilla reference signal, replicate 1 = 1453; Renilla reference signal, replicate 2 = 631.
Knock-down of FoxK [DRSC09859] came out at: firefly Hh reporter signal, replicate 1 = 71595; firefly Hh reporter signal, replicate 2 = 66736; Renilla reference signal, replicate 1 = 4308; Renilla reference signal, replicate 2 = 2531.
With knock-down of Tsp42En [DRSC06185], the record shows firefly Hh reporter signal, replicate 1 = 93264; firefly Hh reporter signal, replicate 2 = 81392; Renilla reference signal, replicate 1 = 2264; Renilla reference signal, replicate 2 = 6409.

Sorted by “firefly Hh reporter signal, replicate 2” (low to high): 2 of the entries above.
alphaKap4 [DRSC09823] — firefly Hh reporter signal, replicate 1 = 48000; firefly Hh reporter signal, replicate 2 = 42338; Renilla reference signal, replicate 1 = 2850; Renilla reference signal, replicate 2 = 3590
CG14011 [DRSC02343] — firefly Hh reporter signal, replicate 1 = 1.04e5; firefly Hh reporter signal, replicate 2 = 54484; Renilla reference signal, replicate 1 = 1971; Renilla reference signal, replicate 2 = 5110
